Assay results: PubChem BioAssay AID445 (National Center for Advancing Translational Sciences (NCATS), 2006)
The list shows a part of the results. These are further read-outs of the screen, such as a control signal, another cell line or another target. No call is given for them. Most of these compounds were active or inconclusive in the main read-out, so they are no random draw. Potencies come from curve fits of mixed quality, noted in brackets.

Assay: IkB Signaling
Conditions: ABC-DLBCL IkBa-CBG/CBR dual luciferase ratio (green luciferase fused to IkBa over red control in OCI-Ly3 lymphoma cells), 4 h
Outline: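 Curves were fitted separately to fusion (green), unfused (red) and ratio luminescence, then classed by r2, magnitude and activity. Cells: OCI-Ly3, 4 h compound plus doxycycline at 37C; 10 uM MG-132 defined full response.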

[1] = measured here: control luc red channel unless noted

Structure (SMILES): Cc1ccc(N(CC(O)Cn2c3ccccc3c3ccccc32)S(=O)(=O)c2ccc(F)cc2)cc1 (stereo not given)
- AC50 [1]: 20 µM [falling, partial curve]

Structure (SMILES): Cc1cc(NC(=O)CSc2nc(-c3cccc(F)c3)nc3c2c(=O)n(C)c(=O)n3C)no1
- AC50 [1]: 20 µM [rising, partial curve]

Structure (SMILES): Cc1ccc2nc3sc(C(=O)N4CCOCC4)c(N)c3cc2c1
- AC50 [1]: 12.6 µM [falling, partial curve]

Structure (SMILES): CCOC(=O)c1ccc(N2CC3=C(C2=O)C(c2ccc(OC)cc2)NC(=O)N3C)cc1 (stereo not given)
- AC50 [1]: 5.01 µM [rising, partial curve, poor fit]

Structure (SMILES): COc1ccc2c(Sc3ccc(C)cc3)c(C(=O)NCC(C)c3ccccc3)[nH]c2c1 (stereo not given)
- AC50 [1]: 7.94 µM [falling, full curve]

Structure (SMILES): CCOC(=O)N1CCN(CCC(=O)c2ccc(Cl)cc2)CC1
- AC50 [1]: 31.6 µM [falling, single point]

Structure (SMILES): COc1ccccc1NC(=O)c1oc2ccccc2c1NC(=O)Cc1cccs1
- AC50 [1]: 0.631 µM [falling, full curve, poor fit]

Structure (SMILES): COc1cc2c(cc1OC)C(c1ccc(Cl)cc1)N(c1cccc(C#N)c1)C(=O)C2 (stereo not given)
- AC50 [1]: 39.8 µM [falling, single point]

Structure (SMILES): CCOC(=O)c1cc(=O)n2[nH]c(-c3ccc(C)cc3)cc2n1
- AC50 [1]: 31.6 µM [falling, single point]

Structure (SMILES): CCc1nnc(NC(=O)CSc2nc3c([nH]c4ccccc43)c(=O)n2-c2ccc(F)cc2)s1
- AC50 [1]: 1 µM [rising, full curve, poor fit]

Structure (SMILES): N#CC1=C(N)N(c2ccc(Br)cc2)C2=C(C(=O)CCC2)C1c1cccnc1 (stereo not given)
- AC50 [1]: 3.16 µM [falling, full curve]

Structure (SMILES): COc1ccccc1/C=C/c1onc(C)c1S(=O)(=O)N1CCC(C(=O)N2CCC(C)CC2)CC1
- AC50 [1]: 6.31 µM [rising, single point]

Structure (SMILES): O=C(CSc1nnc(-c2cccs2)n1CC1CCCO1)c1cc2ccccc2o1 (stereo not given)
- AC50 [1]: 12.6 µM [falling, partial curve]

Structure (SMILES): CCOc1ccc(NC(=O)c2ccccc2CO)cc1
- AC50 [1]: 15.8 µM [falling, partial curve]

Structure (SMILES): CC(=O)N1CCN(c2ccc(NC(=O)c3ccc(C(C)(C)C)cc3)cc2)CC1
- AC50 [1]: 25.1 µM [falling, partial curve]

Structure (SMILES): COC(=O)c1sccc1S(=O)(=O)N(CC(=O)Nc1ccccc1C)c1ccc(Cl)cc1
- AC50 [1]: 10 µM [falling, partial curve]

Structure (SMILES): CC[C@@H]1CN2CCc3cc(OC)c(OC)cc3[C@H]2C[C@@H]1C[C@@H]1NCCc2cc(OC)c(OC)cc21
- AC50 (measured here: IkB-luc green channel): 0.158 µM [falling, full curve]
- AC50 (measured here: control luc red channel): 0.2 µM [falling, full curve]

Structure (SMILES): COc1ccc2oc(=O)c(C(=O)NCCc3c(C)[nH]c4ccc(C)cc34)cc2c1
- AC50 [1]: 10 µM [falling, partial curve]

Structure (SMILES): O=C(Nc1ccccc1-c1nnn(CC(=O)N2CCCc3ccccc32)n1)c1ccco1
- AC50 [1]: 0.794 µM [falling, full curve]

Structure (SMILES): Cc1nn(-c2ccccc2)c(-n2cccc2)c1C(=O)N1CCN(c2ccccc2)CC1
- AC50 [1]: 7.94 µM [falling, partial curve]

Structure (SMILES): Cc1cc(OCC(=O)N(Cc2ccc(N(C)C)cc2)Cc2ccco2)cc(C)c1Cl
- AC50 [1]: 20 µM [falling, partial curve]

Structure (SMILES): CCOC(=O)c1ccc(OC(=O)c2cn(-c3ccc(C)cc3)c(=O)c3ccccc23)cc1
- AC50 [1]: 15.8 µM [falling, partial curve]

Structure (SMILES): COCCCN1C(=O)c2[nH]nc(-c3cc(C)ccc3O)c2C1c1ccc(F)cc1 (stereo not given)
- AC50 [1]: 25.1 µM [falling, single point]

Structure (SMILES): COc1cc(-n2nc(C)c3c2OC(N)=C(C#N)C3c2ccccc2)c(Cl)c(Br)c1O (stereo not given)
- AC50 [1]: 6.31 µM [falling, partial curve]

Structure (SMILES): Cc1nnc(SCCC(C)C)[nH]c1=O
- AC50 [1]: 12.6 µM [falling, partial curve]

Structure (SMILES): O=C(Nc1noc2ccccc12)c1cccc(Cl)c1Cl
- AC50 [1]: 0.2 µM [rising, full curve]

Structure (SMILES): COc1ccc(CNCCC(c2ccc(C)cc2)c2ccco2)cc1 (stereo not given)
- AC50 [1]: 39.8 µM [falling, single point]

Structure (SMILES): Cc1cccc(OCC(=O)Nc2ccc(S(=O)(=O)Nc3onc(C)c3C)cc2)c1C
- AC50 [1]: 10 µM [falling, partial curve]

Structure (SMILES): Clc1cccc(-n2ncc3c(Nc4ccc5c(c4)OCCO5)ncnc32)c1
- AC50 [1]: 0.631 µM [falling, full curve]

Structure (SMILES): CC(=O)N1CCc2cc(S(=O)(=O)NC(Cc3ccccc3)C(=O)Nc3ccc(C)cc3C)ccc21 (stereo not given)
- AC50 [1]: 20 µM [falling, partial curve]

Structure (SMILES): CC(C)Oc1ccccc1C1CC(=O)Nc2cc3c(cc21)OCO3 (stereo not given)
- AC50 [1]: 25.1 µM [falling, partial curve]

Structure (SMILES): O=c1cc2nc(-c3ccccc3)nc(SCCOc3ccc(Cl)cc3)n2[nH]1
- AC50 [1]: 0.251 µM [rising, partial curve]

Structure (SMILES): COc1ccc(C(=O)Nc2ccc3oc(-c4cc(Cl)ccc4Cl)nc3c2)cc1Br
- AC50 [1]: 6.31 µM [falling, partial curve]

Structure (SMILES): COc1ccc(CCNC(=O)CCn2c(=O)c3ccccc3n(CC(=O)Nc3cc(Cl)ccc3C)c2=O)cc1OC
- AC50 [1]: 1.58 µM [rising, full curve, poor fit]

Structure (SMILES): CC(=O)c1cccc(NC(=O)CCCSc2nc(-c3ccco3)cc(C(F)(F)F)n2)c1
- AC50 [1]: 31.6 µM [falling, single point]

Structure (SMILES): COc1ccc(NC(=O)CN2C(=O)C(c3ccc(C)cc3)=NC23CCCCCC3)cc1Cl
- AC50 [1]: 12.6 µM [falling, partial curve]

Structure (SMILES): COc1cccc(-c2nc(SCC(=O)NCC3CCCO3)c(-c3ccc(Cl)cc3)[nH]2)c1 (stereo not given)
- AC50 [1]: 25.1 µM [falling, partial curve]

Structure (SMILES): CN(C)CCNC(=O)C(=O)NCC(c1cccnc1)N1CCN(c2ccccc2)CC1 (stereo not given)
- AC50 [1]: 25.1 µM [falling, single point]

Structure (SMILES): O=C(c1ccccc1Br)N(Cc1ccccc1F)C1CCS(=O)(=O)C1 (stereo not given)
- AC50 [1]: 39.8 µM [falling, single point]
